# Among all 580,000 compounds or so, about 6,100 (1.1%) were called active. This list was built around the results that the source calls inconclusive (neither active nor inactive); the mix of calls is not that of the screen. The call rests on the fitted dose curve; in most records, active means well fitted inhibition curve with a large enough effect; inconclusive means small, poorly fitted or top-dose-only effect, or another doubt; inactive means no such curve, though single readings can be large or run the other way. Potencies of inconclusive entries are doubtful fits and often do not repeat.
# Chains of the proteins cited; added tags and fusions are not shown. Lines headed by an entry give the natural chain unless they say otherwise; changes in a name come on top.
# UniProt P18054: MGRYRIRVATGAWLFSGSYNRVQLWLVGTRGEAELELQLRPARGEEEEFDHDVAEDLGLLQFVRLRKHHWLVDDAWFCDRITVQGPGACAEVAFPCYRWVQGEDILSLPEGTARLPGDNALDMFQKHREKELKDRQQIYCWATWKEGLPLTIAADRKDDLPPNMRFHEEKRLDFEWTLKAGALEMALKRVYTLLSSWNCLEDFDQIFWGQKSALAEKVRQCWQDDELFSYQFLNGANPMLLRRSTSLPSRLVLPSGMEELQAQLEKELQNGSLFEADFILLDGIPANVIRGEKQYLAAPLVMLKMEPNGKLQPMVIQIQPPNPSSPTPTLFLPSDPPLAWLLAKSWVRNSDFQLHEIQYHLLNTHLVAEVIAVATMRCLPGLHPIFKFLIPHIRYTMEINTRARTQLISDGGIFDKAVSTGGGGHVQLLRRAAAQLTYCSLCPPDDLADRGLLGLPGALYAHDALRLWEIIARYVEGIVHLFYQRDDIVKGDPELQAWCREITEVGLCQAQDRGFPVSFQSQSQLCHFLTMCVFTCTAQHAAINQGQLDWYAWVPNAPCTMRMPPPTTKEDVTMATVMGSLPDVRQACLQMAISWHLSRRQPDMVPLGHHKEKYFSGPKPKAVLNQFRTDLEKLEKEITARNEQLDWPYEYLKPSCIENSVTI
# Target: Polyunsaturated fatty acid lipoxygenase ALOX12 (Homo sapiens) (UniProt P18054)
# Assay: Primary qHTS assay for inhibitors of human arachidonate 12S-lipoxygenase (ALOX12): Round 2
# Conditions: purified 12hLO, xylenol orange hydroperoxide absorbance; activity change, negative = inhibition: at 108 µM (top of the series) unless noted
# Method in brief: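 Purified human 12hLO at 150 nM in 25 mM Hepes, 0.01% Triton X-100, pH 7.0, preincubated 15 min at room temperature with compound. Reaction started with 40 uM arachidonic acid, 30 min at room temperature. Hydroperoxide measured by Fe-xylenol orange, 573/405 nm absorbance ratio.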
# On the % scale 0 is the no-effect control and ±100 the full control effect; potency means the concentration at half of the fitted maximal effect.
Structure (SMILES),Potency,"activity change, negative = inhibition"
CCn1ccc2oc(C)c(C(=O)NCc3ccc(F)cc3Cl)c2c1=O,"inconclusive: 50.1 µM [inhibitor, partial curve]",
CCNc1ncc2nc(-c3cccs3)c(=O)n(Cc3cccc(OC)c3)c2n1,"inconclusive: 5.62 µM [inhibitor, full curve, poor fit]",
CC(C)C(=O)N1CCN(c2ccccc2NC(=O)c2cccc(Cl)c2)CC1,"inconclusive: 6.31 µM [inhibitor, full curve, poor fit]",
COC(=O)CC1=C(c2ccc([N+](=O)[O-])cc2)CCC1=O,"inconclusive: 35.5 µM [inhibitor, partial curve]",
COc1ccc(NC(=S)NC(NC(=O)c2cccc(Cl)c2)C(Cl)(Cl)Cl)c([N+](=O)[O-])c1 (stereo unspecified),"inconclusive: 17.8 µM [inhibitor, full curve]",
COc1ccccc1CCNC(=O)Nc1cccc(CN2CCOC2=O)c1,,inactive: 32.2%
CCOC(=O)Cc1csc(NC(=O)Nc2ccc(F)cc2)n1,"inconclusive: 100 µM [inhibitor, partial curve, poor fit]",
O=C(/C=C/NCCN(/C=C/C(=O)C(F)(F)F)CCN/C=C/C(=O)C(F)(F)F)C(F)(F)F,"inconclusive: 25.1 µM [inhibitor, partial curve, poor fit]",
COc1ccc(C(=O)COc2ccccc2C#N)cc1Br,"inconclusive: 35.5 µM [inhibitor, single point]",
COC(=O)C(c1ccccc1)C(C(=O)OC)c1ccccc1 (stereo unspecified),,inactive: 19%
Cc1oc(CC(C)C)cc1C(N)=O,,inactive: -23.6%
O=C(COC(=O)c1ccc(Sc2ccccc2)c([N+](=O)[O-])c1)NC1CCCc2ccccc21 (stereo unspecified),"inconclusive: 50.1 µM [inhibitor, partial curve, poor fit]",
O=C(NCc1ccncc1)[C@@H]1CCCN1C(=O)[C@@H]1CCCN1C(=O)c1cccc2ccccc12,"inconclusive: 50.1 µM [inhibitor, partial curve, poor fit]",
CCOC(=O)N1CCN(CC(=O)Nc2c(C(=O)OC)[nH]c3cc(C)ccc23)CC1,,inactive: 0%
Cc1ccc(S(=O)(=O)/N=C(/Nc2ccc(O)c(C(=O)O)c2)c2ccccc2)cc1,"inconclusive: 31.6 µM [inhibitor, partial curve, poor fit]",
Oc1cc(-c2ccccc2)c2ccccc2c1,"inconclusive: 44.7 µM [inhibitor, partial curve, poor fit]",
CN1CCC(NC(=O)c2nc3nc(-c4ccccc4)c(-c4cccc(O)c4)cc3n2C)CC1,"inconclusive: 44.7 µM [inhibitor, partial curve]",
COc1ccc(C(C(=O)Nc2ccc(C(C)C)cc2)N(C)C(=O)Cc2cccs2)cc1 (stereo unspecified),"inconclusive: 89.1 µM [inhibitor, partial curve, poor fit]",
Cc1ccc(-c2nc(C#N)c(N3CCN(c4ccccc4)CC3)o2)cc1,,inactive: -1.22%
COc1ccc(S(=O)(=O)NC(C)C)cc1-n1cnnn1,"inconclusive: 141 µM [inhibitor, single point]",
NC(=NCc1ccccc1)NN=Cc1ccnc2ccccc12,active: 12.6 µM,
NC(=O)NC(=O)CSc1nc(-c2ccco2)nc2ccccc12,"inconclusive: 100 µM [inhibitor, single point]",

Structure (SMILES),Potency,"activity change, negative = inhibition"
Clc1ccc(-c2noc(CNc3ccc(Br)cc3)n2)cc1,"inconclusive: 4.47 µM [inhibitor, full curve, poor fit]",
CCOc1cc(=O)n2c(c1C(=O)Nc1ccc(F)cc1)CCCC2,,inactive: 36.8%
C[C@@H](NS(=O)(=O)c1ccccc1)c1onc(-c2ccc(F)cc2)c1C(=O)O,,inactive: -16.4% [at 176 µM]
O=C1NC(=NC2CCCC2)C2(CCN(Cc3ccsc3)C2)N1c1cccnc1 (stereo unspecified),,inactive: -11.8% [at 6.33 µM]
Cc1ncc2c(c1CNC(=O)c1cncs1)CCN(C(=O)c1cccc(-c3cccc(F)c3)c1)C2,"inconclusive: 112 µM [inhibitor, single point]",
COC(=O)c1cccc(NC(=O)CSc2nc(=O)[nH]nc2C)c1,,inactive: -23%
CN(C)C(CNC(=O)c1cccc(S(=O)(=O)N(C)C)c1)c1ccccc1 (stereo unspecified),"inconclusive: 89.1 µM [inhibitor, partial curve, poor fit]",
Cc1nnc(-c2cc(-c3ccsc3)ccn2)n1C(C)C,"inconclusive: 158 µM [inhibitor, partial curve, poor fit]",
O=C(Nc1ccc(F)cc1F)Nc1cc(C(=O)NCc2cccc(F)c2)ccc1N1CCOCC1,"inconclusive: 79.4 µM [inhibitor, single point]",
CCOc1ccccc1N1CCN(CC(=O)Nc2ccc(C)cc2F)CC1,,inactive: -24.2%
CCc1ccc(OCC(=O)N2CC(C(N)=O)Oc3ccccc32)cc1 (stereo unspecified),"inconclusive: 2.24 µM [inhibitor, full curve, poor fit]",
Cc1cc(NC(=O)CSC2=NS(=O)(=O)c3cc(Cl)ccc3N2)no1,"inconclusive: 44.7 µM [inhibitor, partial curve, poor fit]",
COc1ccc(C(=O)NCC(c2cccnc2)N2CCN(c3ccccc3OC)CC2)cc1 (stereo unspecified),,inactive: 4.44%
CC(C)(C)[C@@H]1C=C(C(=O)Nc2ccccc2)O[C@H](OCc2ccc(CO)cc2)C1,"inconclusive: 1 µM [inhibitor, full curve, poor fit]",
COc1cc(C(=O)O[C@@H]2CC3CC[C@]2(C)C3(C)C)ccc1O,"inconclusive: 141 µM [inhibitor, single point]",
Cc1nc(-c2ccncc2)sc1C(=O)O,"inconclusive: 28.2 µM [inhibitor, partial curve, poor fit]",
Cc1c(C(=O)NCc2ccccc2)oc2ccc(S(=O)(=O)N3CCC(C)CC3)cc12,,inactive: 5.75%
O=C(NCc1ccco1)c1ccc2c(=O)n(Cc3ccco3)c(SCC(=O)N3CCCC3)nc2c1,,inactive: 0%
COc1ccc(-n2c(=O)c3ccccc3c3ccccc3c2=O)c(OC)c1,,inactive: 0.977%
CCn1c2c(c(=O)n3ncc(C(=O)Nc4ccc(C(=O)OC)cc4)c13)CN(Cc1ccc(OC)cc1)CC2,"inconclusive: 50.1 µM [inhibitor, partial curve, poor fit]",
Cc1nn(-c2ccccc2)c(N)c1Sc1ccc([N+](=O)[O-])cc1,"inconclusive: 56.2 µM [inhibitor, partial curve, poor fit]",
COCc1ccc2oc(C(=O)O)cc2c1,,inactive: 0%

Structure (SMILES),Potency,"activity change, negative = inhibition"
Cc1[nH]c2ccccc2c1C(=O)CSC(=S)N1CCOCC1,"inconclusive: 112 µM [inhibitor, single point]",
O=C(NC1CCCCC1C(F)(F)F)c1ccc2ncsc2c1 (stereo unspecified),"inconclusive: 70.8 µM [inhibitor, partial curve, poor fit]",
COc1ccc(CCN2Cc3c(cccc3[N+](=O)[O-])C2=O)cc1OC,,inactive: 0%
CN1CCC(C(=O)N2Cc3ccccc3CC3(CCN(Cc4cccnc4)C3)C2)CC1 (stereo unspecified),"inconclusive: 3.16 µM [inhibitor, full curve, poor fit]",
Cc1occc1C(=O)Nc1cccc(Cl)c1Cl,"inconclusive: 4.47 µM [inhibitor, single point]",
CC1N(C)c2cc(NC(=O)c3cccs3)c(P(=O)(Nc3ccc([N+](=O)[O-])cc3)N3CCOCC3)cc2C1(C)C (stereo unspecified),"inconclusive: 50.1 µM [inhibitor, partial curve, poor fit]",
Cc1ccc(-c2nc3ccccc3c(=O)n2N)cc1,,inactive: 22.9%
COCCNC(=S)N/N=C(\C)c1ccc(Cl)c(Cl)c1Cl,active: 39.8 µM,
c1coc(-c2nnc3n2C2(CCCC2)Cc2ccccc2-3)c1,inactive,
COc1cc(/C=C2/SC(=S)N(CCC(=O)Nc3ccc(C(=O)O)cc3)C2=O)cc(OC)c1OC,"inconclusive: 89.1 µM [inhibitor, partial curve, poor fit]",
O=C(CC1C=CCC1)NCc1ccco1 (stereo unspecified),"inconclusive: 44.7 µM [inhibitor, partial curve, poor fit]",
COc1ccc(NC(=O)c2c(N)c(C(=O)c3ccc(OC)cc3)n3ccccc23)cc1,"inconclusive: 126 µM [inhibitor, partial curve, poor fit]",
COc1ccc(/C=C/c2ccc3cccc([N+](=O)[O-])c3n2)cc1O,"inconclusive: 56.2 µM [inhibitor, single point]",
CCOc1ccc(-c2cc(C(=O)N3CCN(c4ncccn4)CC3)c3ccccc3n2)cc1,"inconclusive: 112 µM [inhibitor, partial curve, poor fit]",
COc1ccc(N2CCN(C(=O)CSc3nc4ccccc4nc3Cc3ccc(Cl)cc3)CC2)cc1,,inactive: -26.5%
COc1cccc(OC)c1C(=O)NC(=S)Nc1ccc(N2CCOCC2)c(Cl)c1,"inconclusive: 39.8 µM [inhibitor, partial curve, poor fit]",
Cc1ccc(N(CC(O)Cn2nc(C)cc2C)S(=O)(=O)c2ccc3ccccc3c2)cc1 (stereo unspecified),"inconclusive: 141 µM [inhibitor, partial curve, poor fit]",
CCN(CC)CCn1cnc2c1c(=O)[nH]c(=O)n2Cc1ccccc1,"inconclusive: 25.1 µM [inhibitor, partial curve, poor fit]",
COc1ccc(Cc2nnc(Nc3cccc(Cl)c3)[nH]c2=O)cc1OC,,inactive: -15%
COc1ccc(Cn2c(=O)[nH]c3cc(C(=O)N4CCN(Cc5ccccc5)CC4)ccc3c2=O)cc1,,inactive: 8.7%
O=C(NC1CCC(O)CC1)c1ccc2c(c1)OCCN(c1ccccc1)C2 (stereo unspecified),"inconclusive: 112 µM [inhibitor, partial curve, poor fit]",
Brc1ccc(N=NNc2ccccc2)cc1,"inconclusive: 44.7 µM [inhibitor, partial curve, poor fit]",

# Part of the list above, with bars between the fields.
Structure (SMILES) | Potency | activity change, negative = inhibition
CN1CCC(C(=O)N2Cc3ccccc3CC3(CCN(Cc4cccnc4)C3)C2)CC1 (stereo unspecified) | inconclusive: 3.16 µM [inhibitor, full curve, poor fit] | 
Cc1occc1C(=O)Nc1cccc(Cl)c1Cl | inconclusive: 4.47 µM [inhibitor, single point] | 
CC1N(C)c2cc(NC(=O)c3cccs3)c(P(=O)(Nc3ccc([N+](=O)[O-])cc3)N3CCOCC3)cc2C1(C)C (stereo unspecified) | inconclusive: 50.1 µM [inhibitor, partial curve, poor fit] | 
Cc1ccc(-c2nc3ccccc3c(=O)n2N)cc1 |  | inactive: 22.9%

# From PubChem BioAssay AID1671190 (National Center for Advancing Translational Sciences (NCATS), 2021)
